# Test results as given in the supplement of paper PMC10849652.
# By UniProt entry, the sequences of proteins in these tests, tags left out. Where a name states a change or a piece, a line headed by the entry shows the natural chain unless it says otherwise.
# UniProt Q13371: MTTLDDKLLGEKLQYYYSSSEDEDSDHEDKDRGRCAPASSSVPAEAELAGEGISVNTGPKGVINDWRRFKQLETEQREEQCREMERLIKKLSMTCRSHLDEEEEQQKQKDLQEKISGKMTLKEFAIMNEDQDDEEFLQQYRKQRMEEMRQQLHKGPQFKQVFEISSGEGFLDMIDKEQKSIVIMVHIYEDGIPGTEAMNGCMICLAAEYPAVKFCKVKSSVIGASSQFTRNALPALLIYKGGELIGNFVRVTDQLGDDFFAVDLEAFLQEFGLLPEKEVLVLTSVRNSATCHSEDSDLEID
# UniProt Q9NP74: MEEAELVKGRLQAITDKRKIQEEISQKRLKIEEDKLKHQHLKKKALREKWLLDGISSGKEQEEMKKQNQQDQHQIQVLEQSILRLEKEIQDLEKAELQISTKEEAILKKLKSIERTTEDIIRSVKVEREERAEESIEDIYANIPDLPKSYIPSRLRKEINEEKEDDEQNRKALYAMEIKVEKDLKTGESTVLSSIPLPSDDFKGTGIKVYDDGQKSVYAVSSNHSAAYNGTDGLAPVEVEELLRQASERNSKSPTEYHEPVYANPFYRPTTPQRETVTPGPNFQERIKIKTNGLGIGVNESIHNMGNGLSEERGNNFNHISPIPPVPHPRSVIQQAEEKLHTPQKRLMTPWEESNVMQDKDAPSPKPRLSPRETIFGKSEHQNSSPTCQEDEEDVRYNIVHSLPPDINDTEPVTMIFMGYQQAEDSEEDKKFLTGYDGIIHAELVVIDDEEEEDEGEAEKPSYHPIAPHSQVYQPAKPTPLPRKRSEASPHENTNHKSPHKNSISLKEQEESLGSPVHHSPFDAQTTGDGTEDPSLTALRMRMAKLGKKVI
# UniProt P22061: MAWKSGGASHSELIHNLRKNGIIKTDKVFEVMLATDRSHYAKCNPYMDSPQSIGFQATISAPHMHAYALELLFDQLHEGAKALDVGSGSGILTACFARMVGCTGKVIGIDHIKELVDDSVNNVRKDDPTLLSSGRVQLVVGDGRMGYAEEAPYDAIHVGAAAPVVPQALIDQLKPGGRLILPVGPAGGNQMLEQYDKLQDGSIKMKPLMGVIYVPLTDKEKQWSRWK
# UniProt Q9UHG3: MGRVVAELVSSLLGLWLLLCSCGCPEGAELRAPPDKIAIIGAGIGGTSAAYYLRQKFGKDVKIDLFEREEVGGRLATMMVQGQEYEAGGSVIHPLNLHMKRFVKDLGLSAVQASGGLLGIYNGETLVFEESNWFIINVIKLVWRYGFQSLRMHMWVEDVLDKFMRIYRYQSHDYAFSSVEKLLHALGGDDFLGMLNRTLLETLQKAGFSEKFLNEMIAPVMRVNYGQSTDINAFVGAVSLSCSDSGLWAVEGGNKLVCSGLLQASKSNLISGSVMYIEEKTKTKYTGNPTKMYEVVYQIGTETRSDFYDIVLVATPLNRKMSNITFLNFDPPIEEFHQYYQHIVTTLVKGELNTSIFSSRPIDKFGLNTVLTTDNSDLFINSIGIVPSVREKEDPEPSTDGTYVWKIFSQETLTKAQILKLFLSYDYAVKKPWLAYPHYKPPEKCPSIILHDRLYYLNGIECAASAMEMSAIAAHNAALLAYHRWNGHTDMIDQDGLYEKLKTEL
# UniProt O75459: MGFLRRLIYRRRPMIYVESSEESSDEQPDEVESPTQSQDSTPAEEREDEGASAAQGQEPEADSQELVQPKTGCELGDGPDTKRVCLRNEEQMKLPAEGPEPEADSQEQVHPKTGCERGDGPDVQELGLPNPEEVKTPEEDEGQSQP
# UniProt Q9H300: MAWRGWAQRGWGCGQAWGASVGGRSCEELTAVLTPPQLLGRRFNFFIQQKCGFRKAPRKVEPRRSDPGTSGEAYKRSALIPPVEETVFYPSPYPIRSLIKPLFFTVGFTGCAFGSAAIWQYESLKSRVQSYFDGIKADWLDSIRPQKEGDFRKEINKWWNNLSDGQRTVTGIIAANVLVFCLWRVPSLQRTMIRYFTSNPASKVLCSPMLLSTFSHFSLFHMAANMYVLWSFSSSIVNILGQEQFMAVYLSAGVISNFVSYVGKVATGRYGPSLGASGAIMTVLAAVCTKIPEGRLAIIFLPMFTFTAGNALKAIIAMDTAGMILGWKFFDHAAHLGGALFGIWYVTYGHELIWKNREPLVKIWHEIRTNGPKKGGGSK
# UniProt Q8WW12: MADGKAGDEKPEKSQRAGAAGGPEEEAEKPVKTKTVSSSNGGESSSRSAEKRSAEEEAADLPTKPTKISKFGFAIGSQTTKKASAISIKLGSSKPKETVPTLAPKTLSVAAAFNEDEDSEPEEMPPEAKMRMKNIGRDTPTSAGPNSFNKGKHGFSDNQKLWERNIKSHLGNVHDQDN
# UniProt Q9NVE7: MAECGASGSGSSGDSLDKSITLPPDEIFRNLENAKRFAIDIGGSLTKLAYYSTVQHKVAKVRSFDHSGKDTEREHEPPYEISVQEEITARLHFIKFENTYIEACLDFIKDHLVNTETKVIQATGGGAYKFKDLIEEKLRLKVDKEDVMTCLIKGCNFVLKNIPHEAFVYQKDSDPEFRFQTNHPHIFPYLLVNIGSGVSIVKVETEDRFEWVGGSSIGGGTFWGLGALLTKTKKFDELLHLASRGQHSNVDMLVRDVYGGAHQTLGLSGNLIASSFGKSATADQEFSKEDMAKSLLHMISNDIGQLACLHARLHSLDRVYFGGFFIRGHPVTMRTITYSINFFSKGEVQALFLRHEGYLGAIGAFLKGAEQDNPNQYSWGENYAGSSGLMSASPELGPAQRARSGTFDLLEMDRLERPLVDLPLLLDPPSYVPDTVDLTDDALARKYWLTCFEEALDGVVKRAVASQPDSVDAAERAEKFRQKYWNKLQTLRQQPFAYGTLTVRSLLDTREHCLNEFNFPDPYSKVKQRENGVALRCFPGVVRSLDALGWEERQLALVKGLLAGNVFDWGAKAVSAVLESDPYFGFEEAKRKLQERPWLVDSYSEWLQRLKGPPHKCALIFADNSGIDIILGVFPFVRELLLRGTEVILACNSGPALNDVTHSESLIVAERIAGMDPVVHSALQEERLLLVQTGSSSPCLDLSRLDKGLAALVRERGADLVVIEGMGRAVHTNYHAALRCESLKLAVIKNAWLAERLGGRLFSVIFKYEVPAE
# UniProt Q6VY07, whole entry, looked up: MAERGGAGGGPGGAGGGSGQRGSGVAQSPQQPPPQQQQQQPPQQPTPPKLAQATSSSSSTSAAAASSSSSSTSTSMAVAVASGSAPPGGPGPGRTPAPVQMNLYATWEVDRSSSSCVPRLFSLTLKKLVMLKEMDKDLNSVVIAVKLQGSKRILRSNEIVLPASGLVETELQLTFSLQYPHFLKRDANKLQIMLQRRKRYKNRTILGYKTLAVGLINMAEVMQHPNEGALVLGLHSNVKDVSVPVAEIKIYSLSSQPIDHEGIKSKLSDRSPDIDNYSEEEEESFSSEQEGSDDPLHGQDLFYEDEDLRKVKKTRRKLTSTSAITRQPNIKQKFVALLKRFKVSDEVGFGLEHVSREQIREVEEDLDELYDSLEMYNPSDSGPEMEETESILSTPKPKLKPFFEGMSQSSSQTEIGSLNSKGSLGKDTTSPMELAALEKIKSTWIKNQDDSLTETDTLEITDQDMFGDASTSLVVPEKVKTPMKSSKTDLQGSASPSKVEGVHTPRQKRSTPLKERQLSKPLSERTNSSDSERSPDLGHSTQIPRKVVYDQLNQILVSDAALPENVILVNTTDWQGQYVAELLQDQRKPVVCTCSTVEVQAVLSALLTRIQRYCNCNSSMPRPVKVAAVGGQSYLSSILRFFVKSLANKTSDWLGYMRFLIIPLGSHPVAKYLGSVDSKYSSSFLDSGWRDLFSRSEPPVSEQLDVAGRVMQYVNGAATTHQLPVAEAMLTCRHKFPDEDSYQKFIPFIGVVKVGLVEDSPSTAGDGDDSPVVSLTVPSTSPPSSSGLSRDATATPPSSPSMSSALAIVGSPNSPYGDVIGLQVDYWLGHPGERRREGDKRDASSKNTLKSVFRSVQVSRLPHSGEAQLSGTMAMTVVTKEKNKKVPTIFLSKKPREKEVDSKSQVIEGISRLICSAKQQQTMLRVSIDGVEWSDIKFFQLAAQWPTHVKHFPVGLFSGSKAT
# UniProt P09874, whole entry, looked up: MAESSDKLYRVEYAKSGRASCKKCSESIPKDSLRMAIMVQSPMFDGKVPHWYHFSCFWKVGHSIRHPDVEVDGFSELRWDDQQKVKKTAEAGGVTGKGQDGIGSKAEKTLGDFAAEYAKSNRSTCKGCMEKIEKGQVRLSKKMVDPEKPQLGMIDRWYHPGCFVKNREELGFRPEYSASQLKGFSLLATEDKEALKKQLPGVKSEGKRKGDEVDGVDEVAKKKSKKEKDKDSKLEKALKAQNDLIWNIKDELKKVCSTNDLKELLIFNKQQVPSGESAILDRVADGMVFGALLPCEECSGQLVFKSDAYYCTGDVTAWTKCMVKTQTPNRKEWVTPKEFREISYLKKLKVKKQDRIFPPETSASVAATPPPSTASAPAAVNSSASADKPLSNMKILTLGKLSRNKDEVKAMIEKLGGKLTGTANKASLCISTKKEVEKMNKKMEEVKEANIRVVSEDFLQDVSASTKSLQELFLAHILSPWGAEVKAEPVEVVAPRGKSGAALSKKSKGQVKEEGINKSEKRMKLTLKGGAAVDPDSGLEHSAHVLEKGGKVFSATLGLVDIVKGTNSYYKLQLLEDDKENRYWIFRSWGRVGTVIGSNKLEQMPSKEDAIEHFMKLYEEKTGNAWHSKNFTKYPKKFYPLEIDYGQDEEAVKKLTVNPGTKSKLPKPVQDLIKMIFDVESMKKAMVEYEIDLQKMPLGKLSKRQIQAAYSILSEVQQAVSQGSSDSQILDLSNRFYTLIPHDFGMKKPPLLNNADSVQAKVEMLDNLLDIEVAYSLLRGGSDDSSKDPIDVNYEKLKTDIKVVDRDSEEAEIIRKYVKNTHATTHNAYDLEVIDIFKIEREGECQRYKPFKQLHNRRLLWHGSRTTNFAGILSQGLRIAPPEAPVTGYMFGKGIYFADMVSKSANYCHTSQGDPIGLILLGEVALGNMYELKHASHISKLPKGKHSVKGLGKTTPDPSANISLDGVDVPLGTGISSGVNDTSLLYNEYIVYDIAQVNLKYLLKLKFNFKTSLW
# UniProt Q15102: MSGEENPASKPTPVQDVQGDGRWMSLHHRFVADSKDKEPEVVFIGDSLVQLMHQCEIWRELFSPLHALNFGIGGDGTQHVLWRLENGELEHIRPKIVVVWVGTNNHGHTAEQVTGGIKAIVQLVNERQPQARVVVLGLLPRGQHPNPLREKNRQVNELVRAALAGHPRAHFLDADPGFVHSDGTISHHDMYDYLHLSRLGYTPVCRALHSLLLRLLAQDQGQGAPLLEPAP
# UniProt P22234: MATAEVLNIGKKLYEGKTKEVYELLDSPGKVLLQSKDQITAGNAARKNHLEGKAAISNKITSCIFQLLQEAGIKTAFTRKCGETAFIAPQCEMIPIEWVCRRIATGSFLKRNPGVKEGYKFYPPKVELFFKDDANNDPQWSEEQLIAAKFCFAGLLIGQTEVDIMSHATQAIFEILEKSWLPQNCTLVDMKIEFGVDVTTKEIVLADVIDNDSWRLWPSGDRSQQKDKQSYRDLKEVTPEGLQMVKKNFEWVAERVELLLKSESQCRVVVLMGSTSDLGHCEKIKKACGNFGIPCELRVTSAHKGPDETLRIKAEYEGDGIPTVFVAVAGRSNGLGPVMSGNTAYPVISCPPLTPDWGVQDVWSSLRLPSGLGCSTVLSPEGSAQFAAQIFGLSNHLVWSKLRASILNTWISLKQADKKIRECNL
# UniProt Q86TB9: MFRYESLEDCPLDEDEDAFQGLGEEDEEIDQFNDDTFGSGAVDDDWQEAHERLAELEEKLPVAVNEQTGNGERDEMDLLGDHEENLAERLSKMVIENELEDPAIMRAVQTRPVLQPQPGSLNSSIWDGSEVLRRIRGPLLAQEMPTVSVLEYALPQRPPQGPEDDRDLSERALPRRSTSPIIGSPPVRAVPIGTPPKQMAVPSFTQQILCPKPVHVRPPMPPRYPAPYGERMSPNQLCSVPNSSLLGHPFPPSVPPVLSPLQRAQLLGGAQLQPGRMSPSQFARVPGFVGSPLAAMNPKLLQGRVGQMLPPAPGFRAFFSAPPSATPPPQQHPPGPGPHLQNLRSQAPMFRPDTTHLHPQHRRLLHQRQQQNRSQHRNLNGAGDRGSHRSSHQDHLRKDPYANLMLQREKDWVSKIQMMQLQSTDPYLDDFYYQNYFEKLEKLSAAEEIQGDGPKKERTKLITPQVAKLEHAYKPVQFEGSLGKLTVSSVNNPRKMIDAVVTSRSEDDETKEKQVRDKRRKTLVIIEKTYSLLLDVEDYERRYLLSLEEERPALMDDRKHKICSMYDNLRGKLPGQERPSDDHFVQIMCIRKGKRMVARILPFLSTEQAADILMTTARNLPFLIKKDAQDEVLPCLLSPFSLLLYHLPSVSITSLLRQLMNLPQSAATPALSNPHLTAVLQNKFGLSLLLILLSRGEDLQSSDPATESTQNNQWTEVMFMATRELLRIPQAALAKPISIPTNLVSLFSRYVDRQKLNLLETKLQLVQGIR
# Some of the results follow.
# How the values were obtained:
# Test in all cases: log2 fold change, soluble protein after heating vs DMSO (PISA); higher = thermal stabilisation; K562 cells, 10 uM, 30 min; active = over 0.2 and 3.5 SD of the protein, either way, in both replicates (recomputed)
# erlotinib = compound: C#Cc1cccc(Nc2ncnc3cc(OCCOC)c(OCCOC)cc23)c1 [erlotinib]
# How it was run: (§1)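 Aliquots of K562 cells (2×10^6 cells/mL) treated with 10 μM compound for 30 min were heated for 3 min over 48°C-58°C. After pooling and extraction in PBS with 0.5% NP-40 at 4°C, soluble protein from a 21,000xg, 90 min spin was quantified by TMTpro 16plex LC-MS/MS with channel sums equalised. Thermal stability is expressed against control samples, from duplicates, as a log2 fold change.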
# [1] = compound: C/C(=N\NC(=O)C1=CC(=CC=C1)S(=O)(=O)N2CCOCC2)/C3=C(C=CC(=C3)Cl)O
# How it was run: as §1
# [2] = compound: C1=CC(=C(C=C1Cl)C2=NC3=NC=CN=C3C(=N2)NC4=CC=NC=C4)F
# How it was run: as §1
# [3] = compound: C1=CC(=CC=C1C2=NC3=C(N2)C=C(C=C3)C(=O)N)OC4=CC=C(C=C4)Cl
# How it was run: as §1
# [4] = compound: C1=CC2=C(C=CC(=C2)/C=C\3/C(=O)NC(=NCC4=CC=CS4)S3)N=C1
# How it was run: as §1
# [5] = compound: C1=CC2=NC=CN=C2C=C1/C=C/3\C(=O)NC(=O)S3
# How it was run: as §1
# [6] = compound: C1=CC=C(C=C1)C2=NC(=C(N2)C3=CC=NC=C3)C4=CC(=C(C=C4)Cl)O
# How it was run: as §1
# [7] = compound: C1=CC=C2C(=C1)C3=NNC4=CC=CC(=C43)C2=O
# How it was run: as §1
# [8] = compound: C1CCN(C1)C(=O)NC2=CC=CC(=C2)NC3=NC=C(C(=N3)NCCC4=CN=CN4)Br
# How it was run: as §1
# [9] = compound: C1CN(CCC1(CC2=CC=C(C=C2)Cl)N)C3=NC=NC4=C3C=CN4
# How it was run: as §1
Target,log2 fold change (erlotinib),log2 fold change [1],log2 fold change [2],log2 fold change [3],log2 fold change [4],log2 fold change [5],log2 fold change [6],log2 fold change [7],log2 fold change [8],log2 fold change [9]
PDE2A (UniProt O00408),inactive: -0.055,active: -0.521,inactive: -0.011,inactive: -0.034,inactive: 0.161,inactive: -0.099,inactive: 0.137,inactive: 0.113,inactive: -0.077,inactive: 0.184
PDIA3 (UniProt P30101),inactive: -0.083,inactive: -0.04,inactive: -0.049,inactive: 0.002,inactive: -0.111,inactive: -0.019,inactive: 0.004,inactive: 0.047,inactive: -0.005,inactive: -0.05
PCCB isoform 2 (UniProt P05166),inactive: 0.018,inactive: 0.006,inactive: -0.016,inactive: -0.015,inactive: -0.024,inactive: -0.004,inactive: -0.022,inactive: 0.015,inactive: -0.015,inactive: 0.042
PDLIM1 (UniProt O00151),inactive: 0.022,inactive: -0.021,inactive: 0.069,inactive: -0.009,inactive: -0.013,inactive: 0.014,inactive: 0,inactive: -0.009,inactive: -0.033,inactive: 0.04
PDF (UniProt Q9HBH1),inactive: 0.027,inactive: 0.032,inactive: 0.046,inactive: 0.065,inactive: 0.045,inactive: 0.033,inactive: -0.03,inactive: 0.02,inactive: -0.03,inactive: 0.03
PDHX (UniProt O00330),inactive: -0.167,inactive: -0.177,inactive: -0.149,inactive: 0.022,inactive: -0.155,inactive: -0.045,inactive: -0.037,inactive: 0.089,inactive: -0.033,inactive: -0.179
PDCL (UniProt Q13371),inactive: 0.048,inactive: 0.033,inactive: 0.011,inactive: 0.008,inactive: -0.085,inactive: 0.107,inactive: 0.018,inactive: -0.002,inactive: 0.012,inactive: -0.014
PALMD (UniProt Q9NP74),inactive: 0.032,inactive: 0,inactive: 0.063,inactive: 0.035,inactive: 0.026,inactive: 0.103,inactive: -0.074,inactive: -0.008,inactive: 0.02,inactive: 0.11
PCMT1 isoform 2 (UniProt P22061),inactive: 0.028,inactive: 0.05,inactive: 0.063,inactive: -0.009,inactive: 0.045,inactive: -0.002,inactive: 0.022,inactive: 0.021,inactive: 0.005,inactive: 0.009
PANK2 (UniProt Q9BZ23),inactive: 0.057,inactive: 0.002,inactive: 0.055,inactive: 0.016,inactive: 0.039,inactive: -0.078,inactive: -0.121,inactive: -0.036,inactive: -0.046,inactive: 0.018
PDCD10 (UniProt Q9BUL8),inactive: 0.018,inactive: 0.062,inactive: 0.041,inactive: 0.008,inactive: 0.052,inactive: 0.036,inactive: 0,inactive: -0.003,inactive: 0.016,inactive: 0.048
PDIA5 (UniProt Q14554),inactive: -0.07,inactive: -0.046,inactive: -0.043,inactive: -0.002,inactive: -0.039,inactive: 0.002,inactive: 0.02,inactive: -0.005,inactive: -0.006,inactive: -0.063
PCYOX1 (UniProt Q9UHG3),inactive: -0.008,inactive: 0.003,inactive: 0.076,inactive: 0.012,inactive: 0.05,inactive: 0.032,inactive: -0.007,inactive: -0.055,inactive: 0.006,inactive: 0.054
PAGE1 (UniProt O75459),inactive: -0.061,inactive: 0.03,inactive: 0.032,inactive: -0.053,inactive: -0.088,inactive: 0.063,inactive: 0.161,inactive: -0.029,inactive: 0.031,inactive: 0.049
PARL (UniProt Q9H300),inactive: -0.019,inactive: 0.015,inactive: 0.011,inactive: -0.011,inactive: 0.016,inactive: 0.044,inactive: 0.026,inactive: -0.012,inactive: 0.015,inactive: 0.017
PCNP (UniProt Q8WW12),inactive: 0.02,inactive: -0.021,inactive: -0.004,inactive: -0.028,inactive: 0.005,inactive: 0.033,inactive: 0.03,inactive: -0.011,inactive: 0.111,inactive: 0.071
PDZD8 (UniProt Q8NEN9),inactive: 0.011,inactive: 0.054,inactive: 0.028,inactive: 0.017,inactive: 0.012,inactive: 0.052,inactive: 0.05,inactive: 0,inactive: -0.006,inactive: -0.001
PECAM1 (UniProt P16284),inactive: -0.039,inactive: 0.072,inactive: -0.055,inactive: 0.057,inactive: 0.054,inactive: -0.024,inactive: -0.05,inactive: -0.133,inactive: 0.057,inactive: 0.021
PARN (UniProt O95453),inactive: 0,inactive: 0.052,inactive: 0.08,inactive: -0.008,inactive: -0.028,inactive: 0.034,inactive: -0.019,inactive: -0.001,inactive: -0.02,inactive: 0.109
PER3 isoform 2 (UniProt P56645),inactive: 0.015,inactive: 0.09,inactive: -0.076,inactive: 0.021,inactive: -0.124,inactive: 0.021,inactive: -0.084,inactive: 0.014,inactive: -0.056,inactive: 0.072
PACSIN2 (UniProt Q9UNF0),inactive: 0.16,inactive: 0.141,inactive: -0.038,inactive: -0.014,inactive: 0.124,inactive: -0.009,inactive: -0.032,inactive: 0.025,inactive: -0.088,inactive: -0.071
PANK4 (UniProt Q9NVE7),inactive: -0.031,inactive: -0.033,inactive: 0.048,inactive: -0.017,inactive: 0.097,inactive: 0.064,inactive: -0.003,inactive: 0.006,inactive: -0.044,inactive: -0.037
PACS1 (UniProt Q6VY07),inactive: 0.027,inactive: 0.036,inactive: -0.049,inactive: 0.01,inactive: 0.016,inactive: -0.077,inactive: -0.039,inactive: -0.084,inactive: -0.048,inactive: -0.063
PBK (UniProt Q96KB5),inactive: 0.103,inactive: 0.117,inactive: -0.054,inactive: -0.037,inactive: 0.083,inactive: 0.028,inactive: 0.067,inactive: 0.016,inactive: -0.052,inactive: -0.105
PARP1 (UniProt P09874),inactive: 0.076,inactive: 0.135,inactive: 0.042,inactive: -0.005,inactive: 0.098,inactive: -0.042,inactive: 0.137,inactive: 0.35,inactive: -0.078,inactive: -0.042
PAFAH1B3 (UniProt Q15102),inactive: 0.028,inactive: 0.091,inactive: 0.029,inactive: 0.017,inactive: 0.148,inactive: -0.038,inactive: 0.085,inactive: 0.061,inactive: -0.058,inactive: 0.032
PAICS (UniProt P22234),inactive: 0.01,inactive: -0.019,inactive: 0.03,inactive: -0.002,inactive: 0.005,inactive: -0.013,inactive: -0.037,inactive: 0.02,inactive: 0.043,inactive: 0.041
PDS5A (UniProt Q29RF7),inactive: 0.225,inactive: 0.132,inactive: 0.04,inactive: -0.227,inactive: 0.05,inactive: -0.176,inactive: 0.14,inactive: 0.108,inactive: -0.25,inactive: -0.267
PDS5B (UniProt Q9NTI5),inactive: -0.023,inactive: 0.002,inactive: 0.001,inactive: 0.043,inactive: 0.092,inactive: 0.12,inactive: 0.061,inactive: 0.013,inactive: -0.302,inactive: -0.287
PATL1 (UniProt Q86TB9),inactive: 0.044,inactive: 0.13,inactive: -0.021,inactive: 0.048,inactive: 0.01,inactive: -0.233,inactive: -0.075,inactive: 0.029,inactive: -0.071,inactive: -0.052

# Nothing new here: an excerpt of the list.
Target,log2 fold change (erlotinib),log2 fold change [1],log2 fold change [2],log2 fold change [3],log2 fold change [4],log2 fold change [5],log2 fold change [6],log2 fold change [7],log2 fold change [8],log2 fold change [9]
PDIA3 (UniProt P30101),inactive: -0.083,inactive: -0.04,inactive: -0.049,inactive: 0.002,inactive: -0.111,inactive: -0.019,inactive: 0.004,inactive: 0.047,inactive: -0.005,inactive: -0.05
PCCB isoform 2 (UniProt P05166),inactive: 0.018,inactive: 0.006,inactive: -0.016,inactive: -0.015,inactive: -0.024,inactive: -0.004,inactive: -0.022,inactive: 0.015,inactive: -0.015,inactive: 0.042
